Record: PubChem BioAssay AID652243 (Drosophila RNAi Screening Center, 2013)
The screen tested about 24,000 reagents; below is a random part of those with a known target gene and a result. Over the whole deposit, 246 (1%) were called active. 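Plates not normalised; calls are printed but the firefly/Renilla ratio behind them is not deposited; fold cut for lowering reported inconsistently.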 The raw values are shown without normalisation. Names joined by + are all predicted targets of the reagent. No sequences are given here. Not stated in the record: the amount of reagent.

Assay: 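Knock-downs that decrease or increase androgen receptor reporter signal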 (primary screen)
Cells: Drosophila S2R+ cells
Reagent: long dsRNA against Drosophila genes
Timing: 72 h (48 h, then 24 h hormone)
Treatment: synthetic androgen R1881 at 10 nM for 24 h
Read-out: 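Per-well raw luminescence of the androgen-driven firefly reporter and of the Renilla control, two replicates each, without normalisation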
Direction: firefly reporter light: higher = more light from androgen-responsive reporter; Renilla control light: higher = more constitutive control signal (cell number, transfection)
Active means: 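Hit when the log firefly-to-Renilla ratio dropped or increased by a fixed fold versus the mean of GFP or LacZ controls across duplicate plates; lowering cut given as 1.5 and as 3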
Meaning of the calls: active = hit: reporter lowered or raised; inactive = no hit

no.	gene knocked down	DRSC id	firefly reporter light, replicate 1	firefly reporter light, replicate 2	Renilla control light, replicate 1	Renilla control light, replicate 2	outcome
1	Rab3-GAP (Rab3 GTPase activating protein)	DRSC02001	6.25e5	7.83e5	2.61e6	2.42e6	inactive
2	Rab3-GAP (Rab3 GTPase activating protein)	DRSC28519	5.47e5	4.78e5	1.05e6	1.19e6	inactive
3	CG30105	DRSC05668	1.58e5	2.05e5	3.29e5	4.32e5	inactive
4	CG30105	DRSC29034	5.36e5	7.08e5	1.34e6	1.18e6	inactive
5	CG11368	DRSC17778	2.04e5	1.49e5	2.07e6	2.20e6	inactive
6	CG34054	DRSC37910	6.32e5	6.52e5	1.26e6	1.61e6	inactive
7	lncRNA:CR34052 (long non-coding RNA:CR34052)	DRSC37874	8.94e5	7.84e5	2.20e6	1.77e6	inactive
8	Usp1 (Ubiquitin specific protease 1)	DRSC14155	1.43e5	1.08e5	1.30e6	9.51e5	inactive
9	para (paralytic)	DRSC20360	3.65e5	4.65e5	3.09e6	2.63e6	inactive
10	Ns1 (Nucleostemin 1)	DRSC15529	1.09e5	1.07e5	1.41e6	1.49e6	inactive
11	Gk2 (Glycerol kinase 2)	DRSC08610	8.65e5	8.97e5	1.71e6	1.37e6	inactive
12	Gk2 (Glycerol kinase 2)	DRSC36887					inactive
13	CG13609	DRSC14612	1.61e5	2.13e5	2.17e6	2.61e6	inactive
14	CG13609	DRSC22843	5.87e5	1.29e6	1.28e6	2.10e6	inactive
15	CG5323	DRSC06929	1.20e5	1.78e5	2.20e6	1.94e6	inactive
16	hbt + CG43779	DRSC23270	7.70e5	6.70e5	1.52e6	1.30e6	inactive
17	RpS15Ab + RpS15Aa	DRSC06129	2.14e5	1.81e5	7.77e5	1.07e6	inactive
18	RpS15Ab + RpS15Aa	DRSC19831	3.60e5	3.04e5	1.62e6	1.60e6	inactive
19	Or47b (Odorant receptor 47b)	DRSC07492	1.48e5	1.53e5	8.67e5	1.05e6	inactive
20	CG42450	DRSC20022	2.34e5	1.32e5	5.39e5	2.48e5	inactive
21	CG42450	DRSC22751	5.68e5	1.02e6	1.45e6	1.66e6	inactive
22	IFT52 (Intraflagellar transport 52)	DRSC03271	2.30e5	2.06e5	1.90e6	1.16e6	inactive
23	IFT52 (Intraflagellar transport 52)	DRSC28697	4.16e5	3.52e5	1.46e6	1.43e6	inactive
24	epsilonCOP (Coat Protein (coatomer) epsilon)	DRSC02003	5.85e5	7.87e5	1.94e6	1.89e6	inactive
25	epsilonCOP (Coat Protein (coatomer) epsilon)	DRSC26466	3.35e5	2.73e5	5.11e5	5.74e5	inactive

Ordered by “Renilla control light, replicate 1” (high to low): some entries from above
gene knocked down	DRSC id	firefly reporter light, replicate 1	firefly reporter light, replicate 2	Renilla control light, replicate 1	Renilla control light, replicate 2	outcome
RpS15Ab + RpS15Aa	DRSC19831	3.60e5	3.04e5	1.62e6	1.60e6	inactive
hbt + CG43779	DRSC23270	7.70e5	6.70e5	1.52e6	1.30e6	inactive
RpS15Ab + RpS15Aa	DRSC06129	2.14e5	1.81e5	7.77e5	1.07e6	inactive
